Laboratory results published in patent US6699983B1, “Integrin-linked kinase and its uses” (Sunnybrook Health Sciences Centre, priority 1995, dated 2004).
At least one compound was matched to its structure with a doubt left.

Assays:
ILK [1] = assay: ILK activation by insulin in IEC-18 cells (immune complex kinase assay, MBP substrate); type: cell-based, rat; conditions: quiescent, serum-starved IEC-18 cells; prior treatment with inhibitor; Wortmannin 200 nM
Procedure: Assessment of ILK activation by insulin on IEC-18 cells. IEC 18 cells are rat colon epithelial cells that are cultured routinely in α-MEM medium supplemented with insulin (10 mg/liter), glucose 3.6 g/liter, and 5% FCS. When IEC 18 cells are grown to 80% confluence, they are serum starved for 18 hours prior to activation by insulin. Before addition of insulin, media are removed and 4 ml of α-MEM+insulin 6 μM is added to the 100 mm dishes. P13 kinase inhibitors such as LY294002 at 50 μM or wortmannin at 200 nM are added optionally to block P13 kinase dependent ILK activation. At the designated times, dishes are washed 3× with ice cold PBS and cells are lysed in 500 μl lysis buffer: 150 mM NaCI, 1% NP-40, 0.5% sodium deoxycholate, 50 mM Hepes pH 7.5, 10 μg/ml leupeptin, 1 mM PMSF, 2.5 μl aprotinin/mi lysis buffer, NaF 5 mM, Sodium vanadate 1 mM. After assessment of protein concentration by Bradford assay, 500 μl samples containing 200 μg of proteins are incubated for 2 hrs at 4° C. with 20 μl of Protein A-Sepharose to preadsorb the non specific kinases. The lysate is then incubated overnight with 2 μg of rabbit anti ILK antiserum at 4° C. under rotation.
The immunocomplexes are then captured by incubating the lysate with 15 μl of Protein A Sepharose for 2 hrs at 4° C. […] Phosphorylation level of MBP is assessed by phosphorimager analysis or exposure to an X ray film.

ILK [2] = assay: ILK activation upon plating cells on fibronectin; type: cell-based
ILK [3] = assay: ILK kinase activity in NIH3T3 cells stably transfected with constitutively active P110 subunit of PI(3)K; type: cell-based; conditions: prior incubation

Compound	inhibition of insulin-stimulated ILK activation (ILK [1])	inhibition of ILK activation upon plating cells on fibronectin (ILK [2])	inhibition of stimulated ILK activity in cells expressing constitutively active P110 subunit of PI(3)K (ILK [3])
O=c1cc(N2CCOCC2)oc2c(-c3ccccc3)cccc12 [LY294002]	inhibits this activation	inhibited	inhibited
COC[C@H]1OC(=O)c2coc3c2[C@@]1(C)C1=C(C3=O)[C@@H]2CCC(=O)[C@@]2(C)C[C@H]1OC(C)=O [Wortmannin, wortmannin]	inhibited		
